PubChem BioAssay AID1259254, NCATS | 2017

Test: 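Genome-wide screen for genes that prevent DNA re-replication in cancer cells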 (primary screen)
Cells: human HCT116 colorectal cancer cells
Reagent: single siRNA against human genes
Time to read-out: 3 days
Read-out: 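Imaged Hoechst DNA stain sorts each cell into a cycle phase by DNA amount; per plate, G2 fraction set to 0% for non-targeting and 100% for GMNN siRNA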
Direction: G2 robust z-score and G2 cells, % of GMNN control: higher = more G2 cells, more excess DNA replication; raw share of cells in G2: higher = larger share of cells with G2 DNA content
Active means: 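An siRNA counts as active if its G2 robust z-score lies at least 5 MADs above the screen median; here such calls match roughly 38% of GMNN control or more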
Shown is an unselected part of about 59,000 deposited reagents. About 1,550 of them (2.6%) were called active. 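G2 share is only a proxy for re-replication; each gene was hit by three separate siRNAs, and active genes were retested.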 The raw values are shown without normalisation. Unmarked entries are inactive. The numbers tell different reagents against one gene apart. The record does not give: the amount of reagent.

no.	gene	reagent no.	G2 robust z-score	G2 cells, % of GMNN control	raw share of cells in G2 (%)
1	ARL6IP1	1	-0.0554	2.58	6
2	ARL6IP1	2	0.337	5.34	6.34
3	ARL6IP1	3	0.118	3.8	4.59
4	PCIF1	1	-0.669	-1.74	3.82
5	PCIF1	2	1.71	15	11.3
6	PCIF1	3	0.148	4.01	3.76
7	POLR1B	1	0.391	5.72	7.81
8	POLR1B	2	1.47	13.3	9.7
9	POLR1B	3	0.793	8.55	7.29
10	LHX8	1	-1.16	-5.16	3.67
11	LHX8	2	0.7	7.89	7.17
12	LHX8	3	-1.3	-6.17	2.55
13	DUS1L	1	1.51	13.6	11.3
14	DUS1L	2	1.53	13.7	9.21
15	DUS1L	3	2.29	19.1	11.1
16	RET	1	-0.00975	2.9	6.57
17	RET	2	-0.862	-3.1	4.37
18	RET	3	-0.586	-1.15	3.62

Laid out differently: results already given
gene | reagent no. | G2 robust z-score | G2 cells, % of GMNN control | raw share of cells in G2 (%)
PCIF1 | 1 | -0.669 | -1.74 | 3.82
PCIF1 | 2 | 1.71 | 15 | 11.3
PCIF1 | 3 | 0.148 | 4.01 | 3.76
POLR1B | 1 | 0.391 | 5.72 | 7.81

More records:
no.	gene	reagent no.	G2 robust z-score	G2 cells, % of GMNN control	raw share of cells in G2 (%)
19	JUP	1	-0.822	-2.82	4.61
20	JUP	2	0.119	3.8	6.43
21	JUP	3	1.49	13.4	9.12
22	LINC00273	1	-0.56	-0.973	3.9
23	LINC00273	2	1.49	13.5	7.95
24	LINC00273	3	-0.381	0.285	3.11
25	CCKBR	1	-1.32	-6.34	3.57
26	CCKBR	2	-0.568	-1.03	4.16
27	CCKBR	3	-0.3	0.857	3.53
28	CTRB1	1	-0.0896	2.34	5.73
29	CTRB1	2	-0.357	0.457	4.08
30	CTRB1	3	-1.04	-4.35	4.04
31	CSNK2A2	1	-0.852	-3.02	4.61
32	CSNK2A2	2	0.73	8.1	8.14
33	CSNK2A2	3	-0.339	0.582	4.23
34	RPL12P8	1	-0.00473	2.93	4.75
35	RPL12P8	2	-0.658	-1.66	2.68
36	RPL12P8	3	0.0499	3.32	4.11
37	POU2AF3	1	0.62	7.33	7.03
38	POU2AF3	2	1.33	12.3	7
39	POU2AF3	3	-0.805	-2.7	1.03
40	PIP4P1	1	-0.0729	2.45	5.13
41	PIP4P1	2	-0.415	0.0498	3.02
42	PIP4P1	3	3.12	24.9	10.8
43	ADSL	1	-0.745	-2.27	3.94
44	ADSL	2	-1.28	-6.04	2.92
45	ADSL	3	-0.345	0.543	4.19
46	ZNF469	1	-0.189	1.64	4.65
47	ZNF469	2	1.08	10.6	6.6
48	ZNF469	3	2.06	17.5	7.7
